Results are given in words; binding and its absence hold for the method and conditions named. Binding seen in cells or lysates may run through a third protein. Some entries that bind do so weakly or less than the wild type. For some assays here: Sequences can lack the tags named with a protein.

Assay [1] concerns the target full-length WT Diaph3-Flag (mouse) (UniProt Q9Z207). Description: co-IP; HEK293T cells cotransfected, harvested 48 h later; lysate incubated with Flag beads at 4 °C overnight, washed 3 to 4 times with lysis buffer; Western blot. (Immunoblotting shows a protein as a band on a membrane.)
The target in assay [2] is full-length Diaph3-M1041A-Flag (mouse) (UniProt Q9Z207). The assay is described as above.

B1: Fbxo3 (overexpressed) (protein, UniProt Q9UK99-1 1-471)
chain: MAAMETETAPLTLESLPTDPLLLILSFLDYRDLINCCYVSRRLSQLSSHDPLWRRHCKKYWLISEEEKTQKNQCWKSLFIDTYSDVGRYIDHYAAIKKAWDDLKKYLEPRCPRMVLSLKEGAREEDLDAVEAQIGCKLPDDYRCSYRIHNGQKLVVPGLLGSMALSNHYRSEDLLDVDTAAGGFQQRQGLKYCLPLTFCIHTGLSQYIAVEAAEGRNKNEVFYQCPDQMARNPAAIDMFIIGATFTDWFTSYVKNVVSGGFPIIRDQIFRYVHDPECVATTGDITVSVSTSFLPELSSVHPPHYFFTYRIRIEMSKDALPEKACQLDSRYWRITNAKGDVEEVQGPGVVGEFPIISPGRVYEYTSCTTFSTTSGYMEGYYTFHFLYFKDKIFNVAIPRFHMACPTFRVSIARLEMGPDEYEEMEEEEEEEEEEDEDDDSADMDESDEDDEEERRRRVFDVPIRRRRCSRLF
For B1, the binding result in assay [1] and in assay [2] was “binds” each time.

B2: Trim27 (overexpressed) (protein, UniProt Q62158 1-513)
chain: MASGSVAECLQQETTCPVCLQYFVEPMMLDCGHNICCACLARCWGAAETNVSCPQCRETFPQRHMRPNRHLANVTQLVKQLRTERPSGPGGEMGVCEKHREPLKLYCEQDQMPICVVCDRSREHRGHSVLPLEEAVEGFKEQIQNRLDHLRRVKDLKKRRRAQGEQARAELLSLTQMEREKIVWEFEQLYHSLKEHEYRLLARLEELDLAIYNSINGAITQFSCNISHLSGLIAQLEEKQQQPTRELLQDIGDTLSRAERIRIPEPWITPPDLQEKIHIFAQKCLFLTESLKQFTEKMQSDMEKIQELREAQLYSVDVTLDPDTAYPSLILSDNLRQVRYSYLQQDLPDNPERFNLFPCVLGSPCFIAGRHYWEVEVGDKAKWTIGVCEDSVCRKGGVTSAPQNGFWAVSLWYGKEYWALTSPMTALPLRTPLQRVGIFLDYDAGEVSFYNVTERCHTFTFSHATFCGPVRPYFSLSYSGGKSAAPLIICPMSGIDGFSGHVGNHGHSMETSP
Regarding B2, the binding entry in assay [1] and in assay [2] was “binds” each time.

B3: Diaph3 DAD-HA (domain or fragment, UniProt Q9Z207 1036-1066)
chain: DETGVMDSLLEALQSGAAFRDRRKRTPKLKD
Consider B3, for which the binding entry in assay [2] is “binds”.

These data come from paper PMC11736009.
